From PubChem BioAssay AID2685 (National Center for Advancing Translational Sciences (NCATS), 2010)
The list shows a part of the results. The main result of the screen is listed elsewhere. These columns were measured beside it and carry no call. Compounds called inactive in the main read-out are mostly missing here. The note in brackets gives the kind of curve behind each potency; many fits are weak.

Assay: qHTS Assay for Lipid Storage Modulators in Drosophila S3 Cells;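 on cell number change: cells counted by Cell Tracker Red CMTPX staining in the red channel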
Conditions: BODIPY lipid droplet fluorescence, 18-24 h; for cell number change: measured here: cell count max response, cells fed with added oleic acid
Method in brief: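 Drosophila S3 cells got compounds at several concentrations plus oleic acid (400 uM solution). Laser-scanning cytometry with 488 nm excitation read lipid droplets at 500-530 nm and cells at 575-640 nm. Percent activity was relative to 20 uM Triacsin C.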

[1] = measured here: lipid fluorescence (Fed channel) AC50, cells fed with added oleic acid
[2] = measured here: cell number channel AC50, cells fed with added oleic acid

Structure (SMILES): Cc1ccc(C(=O)Nc2ccc(F)cc2)o1
- cell number change: 10.9%
- AC50 [1]: 0.13 µM [falling, full curve, poor fit]

Structure (SMILES): CC1(C)Cc2ccccc2C(NNC(=O)c2ccccn2)=N1
- cell number change: 29.6%
- AC50 [1]: 0.58 µM [rising, full curve, poor fit]

Structure (SMILES): Cc1occc1-c1nnc(SCC(=O)Nc2nc(C(C)(C)C)cs2)o1
- cell number change: -74.5%
- AC50 [2]: 9.2 µM [falling, partial curve, poor fit]
- AC50 [1]: 7.31 µM [falling, partial curve]

Structure (SMILES): CCCC(=O)C1=C(N(C)c2ccccc2)CC(C)(C)C(C(=O)OC)C1=O (stereo not drawn)
- cell number change: 27%
- AC50 [1]: 29.1 µM [rising, single point]

Structure (SMILES): CCOC(=O)c1c(C)c(C(=O)NCc2ccccn2)c(C)n1C
- cell number change: -14.2%

Structure (SMILES): CCN(c1ccccc1)S(=O)(=O)c1ccc(C(=O)Nc2ccc(C)cn2)cc1
- cell number change: 23.7%

Structure (SMILES): CN(C)C(CN1C(=O)C2CC=CCC2C1=O)c1cn(C)c2ccccc12 (stereo not drawn)
- cell number change: 2.52%
- AC50 [1]: 29.1 µM [rising, single point]

Structure (SMILES): C=CCN1C(=O)/C(=C\c2cccs2)C(C(=O)OC)=C1C
- cell number change: 52.7%
- AC50 [2]: 18.4 µM [rising, single point]

Structure (SMILES): OCCOCCOCCn1c2ccccc2c2ccccc21
- cell number change: -11.9%
- AC50 [1]: 5.8 µM [falling, full curve]

Structure (SMILES): Cc1ccccc1Cn1cccc1/C=C1/C(=N)N2C=CSC2=NC1=O
- AC50 [2]: 1.84 µM [rising, partial curve]

Structure (SMILES): O=C(Nc1ccccc1C(=O)N1CCCCC1)c1ccco1
- cell number change: 18.4%

Structure (SMILES): COc1ccc(CN2C(=O)c3ccccc3C2=O)cc1C(=O)OC(C)C(=O)NC(N)=O (stereo not drawn)
- cell number change: 19.1%
- AC50 [1]: 13 µM [rising, partial curve]

Structure (SMILES): CC(Sc1nc(NCc2ccccc2)nc(N(C)C)n1)C(=O)Nc1ccccc1 (stereo not drawn)
- cell number change: -53.7%
- AC50 [2]: 29.1 µM [falling, single point]
- AC50 [1]: 2.31 µM [falling, full curve]

Structure (SMILES): Cc1ccc2c(CC(=O)NCCc3ccc(S(N)(=O)=O)cc3)coc2c1
- cell number change: -11%
- AC50 [1]: 20.6 µM [falling, single point]

Structure (SMILES): Cc1ccc2oc(=O)c3cnn(CC(=O)N4CCN(c5ccccc5)CC4)c3c2c1
- AC50 [2]: 0.00411 µM [rising, full curve, poor fit]

Structure (SMILES): CCN1C(=O)[C@H]2[C@@H](c3ccc(Cl)cc3)N3C(=O)CN(CCOC)C(=O)[C@@]3(Cc3ccccc3)[C@H]2C1=O
- cell number change: 22.5%
- AC50 [1]: 29.1 µM [rising, single point]

Structure (SMILES): O=C(Cc1ccccc1)Nc1ccccc1C(=O)N1CCCCCC1
- cell number change: 6.77%
- AC50 [2]: 0.00461 µM [falling, full curve, poor fit]
- AC50 [1]: 0.00461 µM [falling, full curve, poor fit]

Structure (SMILES): CC(C)n1c(CSCc2ccc(Cl)cc2Cl)n[nH]c1=S
- cell number change: -9.17%
- AC50 [2]: 0.651 µM [rising, full curve, poor fit]
- AC50 [1]: 0.731 µM [rising, full curve, poor fit]

Structure (SMILES): N/C(=N\OC(=O)CCCc1ccccc1)c1ccccc1
- cell number change: 13.8%

Structure (SMILES): O=C(NCc1ccccc1Cl)C1CCN(S(=O)(=O)N2CCCC2)CC1
- cell number change: 7.95%
- AC50 [1]: 0.651 µM [falling, single point]

Structure (SMILES): Cc1cc(C)cc(NC(=O)N2CCCC2C(=O)Nc2ccc(-n3cnnn3)cc2)c1 (stereo not drawn)
- AC50 [1]: 6.51 µM [falling, single point]

Structure (SMILES): Cc1ccc(-c2cc(C(=O)N/N=C/c3ccoc3)c3ccccc3n2)cc1
- cell number change: -9.35%

Structure (SMILES): O=C(CN(C(=O)c1csnn1)c1cccc(Cl)c1)NC1CCCCC1
- cell number change: 17.9%

Structure (SMILES): O=C(COC(=O)COc1ccc(Cl)cc1)NC1CCS(=O)(=O)C1 (stereo not drawn)
- cell number change: 11.5%
- AC50 [1]: 0.00461 µM [rising, full curve, poor fit]

Structure (SMILES): c1ccc2c(c1)CCCN2Cc1nnc2n1CCCCC2
- cell number change: -8.78%
- AC50 [1]: 6.51 µM [rising, single point]

Structure (SMILES): O=C(Nc1ccc2oc(-c3ccncc3)nc2c1)c1ccc([N+](=O)[O-])o1
- cell number change: -13.3%
- AC50 [1]: 6.51 µM [rising, single point]

Structure (SMILES): CNC(=O)COc1ccc2oc3c(c2c1)CCCC3
- cell number change: 3.33%
- AC50 [1]: 0.366 µM [rising, partial curve]

Structure (SMILES): COc1ccccc1-c1cnn2c(NCCc3ccccc3)cc(C)nc12
- cell number change: 33.1%
- AC50 [2]: 0.00411 µM [rising, full curve, poor fit]

Structure (SMILES): O=C(CN1C(=O)NC2(CCc3ccccc32)C1=O)c1ccc(F)cc1 (stereo not drawn)
- cell number change: 9.22%
- AC50 [1]: 32.6 µM [falling, single point]

Structure (SMILES): O=C(c1ccccc1)N1N=C(C(F)(F)F)CC1(O)c1ccccc1O (stereo not drawn)
- cell number change: 17.5%
- AC50 [1]: 10.3 µM [rising, partial curve, poor fit]

Structure (SMILES): COc1ccc2cc(CCNS(=O)(=O)c3ccc(NC(C)=O)cc3)c(=O)[nH]c2c1
- cell number change: 12.2%

Structure (SMILES): c1ccc(-c2csc(Nc3cccnc3)n2)nc1
- cell number change: -2.11%
- AC50 [1]: 0.231 µM [rising, full curve, poor fit]

Structure (SMILES): O=C(C1CCN(CCCc2ccccc2)CC1)N(CCc1ccccc1)Cc1ccccc1
- cell number change: -38.9%
- AC50 [2]: 32.6 µM [falling, single point]
- AC50 [1]: 29.1 µM [falling, single point]

Structure (SMILES): CCn1c(CCNC(=O)c2ccc(OC)cc2)nnc1SCc1ccc(Cl)cc1Cl
- cell number change: 9.84%
- AC50 [1]: 18.4 µM [falling, partial curve]

Structure (SMILES): CC1=NN(C(=O)Cn2ccc([N+](=O)[O-])n2)C(O)(C(F)(F)F)C1 (stereo not drawn)
- cell number change: -29.7%
- AC50 [1]: 1.46 µM [falling, full curve]

Structure (SMILES): CC(=O)NC(CCS(C)(=O)=O)C(=O)Nc1cc(C)ccc1C (stereo not drawn)
- AC50 [1]: 6.51 µM [falling, single point]

Structure (SMILES): Cc1cc(C)n2nc(C(=O)Nc3ccc(S(=O)(=O)N4CCCCC4)cc3)nc2n1
- cell number change: -15.8%
- AC50 [1]: 18.4 µM [falling, partial curve]

Structure (SMILES): COc1ccccc1C(=O)N1CCN=C1SC
- cell number change: -59.2%
- AC50 [2]: 25.9 µM [falling, partial curve]

Structure (SMILES): Cc1ccc(S(=O)(=O)N(Cc2cc3ccccc3[nH]c2=O)CC2CCCO2)cc1 (stereo not drawn)
- cell number change: -30.3%
- AC50 [2]: 1.84 µM [falling, full curve]
- AC50 [1]: 20 µM [falling, single point]
